Paper doi:10.1101/2020.05.13.094045

B1: AtTCP2 fused to the Gal4 activation domain (protein, UniProt Q93V43 1-365)
chain: MIGDLMKNNNNGDVVDNEVNNRLSRWHHNSSRIIRVSRASGGKDRHSKVLTSKGPRDRRVRLSVSTALQFYDLQDRLGYDQPSKAVEWLIKAAEDSISELPSLNNTHFPTDDENHQNQTLTTVAANSLSKSACSSNSDTSKNSSGLSLSRSELRDKARERARERTAKETKERDHNHTSFTDLLNSGSDPVNSNRQWMASAPSSSPMEYFSSGLILGSGQQTHFPISTNSHPFSSISDHHHHHPHHQHQEFSFVPDHLISPAESNGGAFNLDFNMSTPSGAGAAVSAASGGGFSGFNRGTLQSNSTNQHQSFLANLQRFPTSESGGGPQFLFGALPAENHHHNHQFQLYYENGCRNSSEHKGKGKN
B2: AtTCP1 fused to the Gal4 activation domain (protein, UniProt Q9FYG7 1-359)
chain: MSSSTNDYNDGNNNGVYPLSLYLSSLSGHQDIIHNPYNHQLKASPGHMVSAVPESLIDYMAFKSNNVVNQQGFEFPEVSKEIKKVVKKDRHSKIQTAQGIRDRRVRLSIGIARQFFDLQDMLGFDKASKTLDWLLKKSRKAIKEVVQAKNLNNDDEDFGNIGGDVEQEEEKEEDDNGDKSFVYGLSPGYGEEEVVCEATKAGIRKKKSELRNISSKGLGAKARGKAKERTKEMMAYDNPETASDITQSEIMDPFKRSIVFNEGEDMTHLFYKEPIEEFDNQESILTNMTLPTKMGQSYNQNNGILMLVDQSSSSNYNTFLPQNLDYSYDQNPFHDQTLYVVTDKNFPKGKVWIQDSFVN
B3: AtTCP6 fused to the Gal4 activation domain (protein, UniProt Q9FLM6 1-243)
chain: MVMEPKKNQNLPSFLNPSRQNQDNDKKRKQTEVKGFDIVVGEKRKKKENEEEDQEIQILYEKEKKKPNKDRHLKVEGRGRRVRLPPLCAARIYQLTKELGHKSDGETLEWLLQHAEPSILSATVNGIKPTESVVSQPPLTADLMICHSVEEASRTQMEANGLWRNETGQTIGGFDLNYGIGFDFNGVPEIGFGDNQTPGLELRLSQVGVLNPQVFQQMGKEQFRVLHHHSHEDQQQSAEENGS
B4: AtTCP10 fused to the Gal4 activation domain (protein, UniProt O82277 1-361)
chain: MGLKGYSVGEGGGEIVEVQGGHIIRATGRKDRHSKVFTSKGPRDRRVRLSAHTAIQFYDVQDRLGYDRPSKAVDWLIKKAKTAIDKLELGETTTTTTRQEPVNTKPESPTLVFQRENNDQTQFVAANLDPEDAMKTFFPATTTTNGGGGTNINFQNYPHQDDNNMVSRTTTPPPNLSQDLGLSLHPFQGNNNTVVVPETNNFTTTHFDTFGRISGWNHHDLTMTSSSSSEHQQQEQEERSNGGFMVNHHPHHHHHQPSMMTLLNSQQQQVFLGGQQQQQQRGTLQSSLFPHSFRSWDHHQTTSDHHHHQNQASSMFASSSQYGSHGMMMMQGLSFPNTTRLLHGEEATQPNSSSSPPNSHL
B5: AtTCP17 fused to the Gal4 activation domain (protein, UniProt Q9LEZ9 1-242)
chain: MGIKKEDQKSSLSLLTQRWNNPRIVRVSRAFGGKDRHSKVCTVRGLRDRRIRLSVMTAIQVYDLQERLGLSQPSKVIDWLLEVAKNDVDLLPPLQFPPGFHQLNPNLTGLGESFPGVFDLGRTQREALDLEKRKWVNLDHVFDHIDHHNHFSNSIQSNKLYFPTITSSSSSYHYNLGHLQQSLLDQSGNVTVAFSNNYNNNNLNPPAAETMSSLFPTRYPSFLGGGQLQLFSSTSSQPDHIE
B6: AtTCP16 fused to the Gal4 activation domain (protein, UniProt Q9M1U4 1-165)
chain: MDSKNGINNSQKARRTPKDRHLKIGGRDRRIRIPPSVAPQLFRLTKELGFKTDGETVSWLLQNAEPAIFAATGHGVTTTSNEDIQPNRNFPSYTFNGDNISNNVFPCTVVNTGHRQMVFPVSTMTDHAPSTNYSTISDNYNSTFNGNATASDTTSAATTTATTTV
B7: AtTCP18 fused to the Gal4 activation domain (protein, UniProt A1YKT1 1-433)
chain: MNNNIFSTTTTINDDYMLFPYNDHYSSQPLLPFSPSSSINDILIHSTSNTSNNHLDHHHQFQQPSPFSHFEFAPDCALLTSFHPENNGHDDNQTIPNDNHHPSLHFPLNNTIVEQPTEPSETINLIEDSQRISTSQDPKMKKAKKPSRTDRHSKIKTAKGTRDRRMRLSLDVAKELFGLQDMLGFDKASKTVEWLLTQAKPEIIKIATTLSHHGCFSSGDESHIRPVLGSMDTSSDLCELASMWTVDDRGSNTNTTETRGNKVDGRSMRGKRKRPEPRTPILKKLSKEERAKARERAKGRTMEKMMMKMKGRSQLVKVVEEDAHDHGEIIKNNNRSQVNRSSFEMTHCEDKIEELCKNDRFAVCNEFIMNKKDHISNESYDLVNYKPNSSFPVINHHRSQGAANSIEQHQFTDLHYSFGAKPRDLMHNYQNMY
B8: AtTCP24 fused to the Gal4 activation domain (protein, UniProt Q9C758 1-324)
chain: MEVDEDIELQKHQEQQSRKLQRFSEDNTGLMRNWNNPSSRIIRVSRASGGKDRHSKVLTSKGLRDRRIRLSVATAIQFYDLQDRLGFDQPSKAVEWLINAASDSITDLPLLNTNFDHLDQNQNQTKSACSSGTSESSLLSLSRTEIRGKARERARERTAKDRDKDLQNAHSSFTQLLTGGFDQQPSNRNWTGGSDCFNPVQLQIPNSSSQEPMNHPFSFVPDYNFGISSSSSAINGGYSSRGTLQSNSQSLFLNNNNNITQRSSISSSSSSSSPMDSQSISFFMATPPPLDHHNHQLPETFDGRLYLYYGEGNRSSDDKAKERR
B9: AtTCP13 fused to the Gal4 activation domain (protein, UniProt Q9S7W5 1-355)
chain: MNIVSWKDANDEVAGGATTRREREVKEDQEETEVRATSGKTVIKKQPTSISSSSSSWMKSKDPRIVRVSRAFGGKDRHSKVCTLRGLRDRRVRLSVPTAIQLYDLQERLGVDQPSKAVDWLLDAAKEEIDELPPLPISPENFSIFNHHQSFLNLGQRPGQDPTQLGFKINGCVQKSTTTSREENDREKGENDVVYTNNHHVGSYGTYHNLEHHHHHHQHLSLQADYHSHQLHSLVPFPSQILVCPMTTSPTTTTIQSLFPSSSSAGSGTMETLDPRQMVSHFQMPLMGNSSSSSSQNISTLYSLLHGSSSNNGGRDIDNRMSSVQFNRTNSTTTANMSRHLGSERCTSRGSDHHM
B10: AtTCP3 fused to the Gal4 activation domain (protein, UniProt Q9MAH8 1-391)
chain: MAPDNDHFLDSPSPPLLEMRHHQSATENGGGCGEIVEVQGGHIVRSTGRKDRHSKVCTAKGPRDRRVRLSAPTAIQFYDVQDRLGFDRPSKAVDWLITKAKSAIDDLAQLPPWNPADTLRQHAAAAANAKPRKTKTLISPPPPQPEETEHHRIGEEEDNESSFLPASMDSDSIADTIKSFFPVASTQQSYHHQPPSRGNTQNQDLLRLSLQSFQNGPPFPNQTEPALFSGQSNNQLAFDSSTASWEQSHQSPEFGKIQRLVSWNNVGAAESAGSTGGFVFASPSSLHPVYSQSQLLSQRGPLQSINTPMIRAWFDPHHHHHHHQQSMTTDDLHHHHPYHIPPGIHQSAIPGIAFASSGEFSGFRIPARFQGEQEEHGGDNKPSSASSDSRH
B11: AtTCP4 fused to the Gal4 activation domain (protein, UniProt Q8LPR5 1-420)
chain: MSDDQFHHPPPPSSMRHRSTSDAADGGCGEIVEVQGGHIVRSTGRKDRHSKVCTAKGPRDRRVRLSAHTAIQFYDVQDRLGFDRPSKAVDWLIKKAKTSIDELAELPPWNPADAIRLAAANAKPRRTTAKTQISPSPPPPQQQQQQQQLQFGVGFNGGGAEHPSNNESSFLPPSMDSDSIADTIKSFFPVIGSSTEAPSNHNLMHNYHHQHPPDLLSRTNSQNQDLRLSLQSFPDGPPSLLHHQHHHHTSASASEPTLFYGQSNPLGFDTSSWEQQSSEFGRIQRLVAWNSGGGGGATDTGNGGGFLFAPPTPSTTSFQPVLGQSQQLYSQRGPLQSSYSPMIRAWFDPHHHHQSISTDDLNHHHHLPPPVHQSAIPGIGFASGEFSSGFRIPARFQGQEEEQHDGLTHKPSSASSISRH
B12: AtTCP5 fused to the Gal4 activation domain (protein, UniProt Q9FME3 1-360)
chain: MRSGECDEEEIQAKQERDQNQNHQVNLNHMLQQQQPSSVSSSRQWTSAFRNPRIVRVSRTFGGKDRHSKVCTVRGLRDRRIRLSVPTAIQLYDLQDRLGLSQPSKVIDWLLEAAKDDVDKLPPLQFPHGFNQMYPNLIFGNSGFGESPSSTTSTTFPGTNLGFLENWDLGGSSRTRARLTDTTTTQRESFDLDKGKWIKNDENSNQDHQGFNTNHQQQFPLTNPYNNTSAYYNLGHLQQSLDQSGNNVTVAISNVAANNNNNLNLHPPSSSAGDGSQLFFGPTPPAMSSLFPTYPSFLGASHHHHVVDGAGHLQLFSSNSNTASQQHMMPGNTSLIRPFHHLMSSNHDTDHHSSDNESDS
B13: AtTCP12 fused to the Gal4 activation domain (protein, UniProt A0AQW4 1-356)
chain: MFPSLDTNGYDLFDPFIPHQTTMFPSFITHIQSPNSHHHYSSPSFPFSSDFLESFDESFLINQFLLQQQDVAANVVESPWKFCKKLELKKKNEKCVDGSTSQEVQWRRTVKKRDRHSKICTAQGPRDRRMRLSLQIARKFFDLQDMLGFDKASKTIEWLFSKSKTSIKQLKERVAASEGGGKDEHLQVDEKEKDETLKLRVSKRRTKTMESSFKTKESRERARKRARERTMAKMKMRLFETSETISDPHQETREIKITNGVQLLEKENKEQEWSNTNDVHMVEYQMDSVSIIEKFLGLTSDSSSSSIFGDSEECYTSLSSVRGMSTPREHNTTSIATVDEEKSPISSFSLYDYLCY
B14: AtTCP19 fused to the Gal4 activation domain (protein, UniProt Q9LT89 1-293)
chain: MESNHEGNAIQVIDQVTTMTHLSDPNPKTKPGMMLMKQEDGYLQPVKTKPAPKRPTSKDRHTKVEGRGRRIRMPAGCAARVFQLTRELGHKSDGETIRWLLERAEPAIIEATGTGTVPAIAVSVNGTLKIPTSSPVLNDGGRDGDGDLIKKRRKRNCTSDFVDVNDSCHSSVTSGLAPITASNYGVNILNVNTQGFVPFWPMGMGTAFVTGGPDQMGQMWAIPTVATAPFLNVGARPVSSYVSNASDAEAEMETSGGGTTQPLRDFSLEIYDKRELQFLGGSGNSSPSSCHET

Tests used:
[1] = target: AP_SAP11-like_PM19^Δ40-56 fused to the Gal4 binding domain ('Candidatus Phytoplasma mali' strain PM19); test: two-hybrid
[2] = target: AP_SAP11-like_PM19 fused to the Gal4 binding domain ('Candidatus Phytoplasma mali' strain PM19); test: two-hybrid

Binder | binding [1] | binding [2]
B1 | binds | binds
B2 | binds | binds
B3 | binds | binds
B4 | no binding | binds
B5 | binds | binds
B6 |  | no binding
B7 | binds | binds
B8 | binds | binds
B9 | binds | binds
B10 | no binding | binds
B11 | no binding | binds
B12 | binds | binds
B13 | binds | binds
B14 | no binding | binds

These are yes or no findings as the source states them, for the method shown. Binding can be weak; no strength is given. Where a sequence is shown, tags or fusion partners need not be part of it.
